# The list shows a part of the results.
# B1: GS7807Q-bfa-507-19-507 (Bacteroides fragilis) (protein)
# chain: ASCNKFDDLNTNPDAATKVTAPMLATKLILNITQQGSAKNFVYHSMLSKQIAWSENASDEQYNLFGRTDFDGYTILTNCQKMVDAANEGDKDSYAALAKFMKAYKLFYKSLEVGDIPYSDALKGEEGVQKPKYDTQKEVMRQVLEDLEEAYTLFSSGSDFDGDPIFGGDTENWKKTVVAFELKVLTHLCKKDTDADLKVKERFARLVSSGSLMTSNADNFQLVYSNKAGQLYPFYYTQNKHSDYLMMSSVIIDNLKKFNDYRMFYYASPAKAQTDKGIKDSEWDAYLSIDPSDSYSNISVLYGKGEFCLANLRYTRVPEGEPLMRLSYAEQNFILAEGAVRGWISEDASTYYKKGIEASMNFIADNTPDKEEYTHGRTITQEYIQEYLAQPVIQLSGDKEKDLEMILLQRYLASFLQHPYDAYYDYRRTGYPVLPINPSTNLNTEKNKIPTRWMYPEAEFSYNPDNANEAVQRQYNGSDDVNKLMWILQ
# Key:
# Assay in all cases: glycan array binding signal (z-score within array); higher = stronger binding
# Conditions in all cases: glycan notation: IUPAC condensed, linker removed
# [1] = biological target: Neu5Ac(a2-3)Gal(b1-4)GlcNAc(b1-6)GalNAc
# Procedure, shortened: (§1)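 The Consortium for Functional Glycomics database supplied 3228 glycan arrays, of which those lacking an available protein sequence were dropped. The binding signal, a within-array Z-score, was averaged across arrays of the same protein sequence and across linkers. Negative scores can be read as non-binding.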
# [2] = biological target: Neu5Ac(a2-3)Gal(b1-4)GlcNAc(b1-6)[Gal(b1-3)]GalNAc
# Procedure, shortened: as §1
# [3] = biological target: Neu5Ac(a2-3)Gal(b1-4)GlcNAc(b1-6)[Neu5Ac(a2-3)Gal(b1-3)]GalNAc
# Procedure, shortened: as §1
# [4] = biological target: Neu5Ac(a2-3)Gal(b1-4)GlcNAc6S
# Procedure, shortened: as §1
# [5] = biological target: Neu5Ac(a2-3)Gal(b1-4)[Fuc(a1-3)]GlcNAc
# Procedure, shortened: as §1
# [6] = biological target: Neu5Ac(a2-3)Gal(b1-4)[Fuc(a1-3)]GlcNAc(b1-2)Man
# Procedure, shortened: as §1
# [7] = biological target: Neu5Ac(a2-3)Gal(b1-4)[Fuc(a1-3)]GlcNAc(b1-3)Gal
# Procedure, shortened: as §1
# [8] = biological target: Neu5Ac(a2-3)Gal(b1-4)[Fuc(a1-3)]GlcNAc(b1-3)Gal(b1-4)GlcNAc
# Procedure, shortened: as §1
# [9] = biological target: Neu5Ac(a2-3)Gal(b1-4)[Fuc(a1-3)]GlcNAc(b1-3)Gal(b1-4)[Fuc(a1-3)]GlcNAc(b1-3)Gal(b1-4)[Fuc(a1-3)]GlcNAc
# Procedure, shortened: as §1
# [10] = biological target: Neu5Ac(a2-3)Gal(b1-4)[Fuc(a1-3)]GlcNAc(b1-3)GalNAc
# Procedure, shortened: as §1
# [11] = biological target: Neu5Ac(a2-3)Gal(b1-4)[Fuc(a1-3)]GlcNAc(b1-6)[Gal(b1-3)]GalNAc
# Procedure, shortened: as §1
# [12] = biological target: Neu5Ac(a2-3)Gal(b1-4)[Fuc(a1-3)]GlcNAc(b1-6)[Neu5Ac(a2-3)Gal(b1-3)]GalNAc
# Procedure, shortened: as §1
# [13] = biological target: Neu5Ac(a2-3)Gal(b1-4)[Fuc(a1-3)]GlcNAc6S
# Procedure, shortened: as §1
# [14] = biological target: Neu5Ac(a2-3)Gal6S(b1-4)GlcNAc
# Procedure, shortened: as §1
# [15] = biological target: Neu5Ac(a2-3)Gal6S(b1-4)[Fuc(a1-3)]GlcNAc
# Procedure, shortened: as §1
# Neu5Ac(a2-3)GalNAc = biological target: Neu5Ac(a2-3)GalNAc
# Procedure, shortened: as §1
# [16] = biological target: Neu5Ac(a2-3)GalNAc(b1-4)GlcNAc
# Procedure, shortened: as §1
# [17] = biological target: Neu5Ac(a2-3)[GalNAc(b1-4)]Gal(b1-4)Glc
# Procedure, shortened: as §1
# [18] = biological target: Neu5Ac(a2-3)[GalNAc(b1-4)]Gal(b1-4)GlcNAc
# Procedure, shortened: as §1
# [19] = biological target: Neu5Ac(a2-3)[GalNAc(b1-4)]Gal(b1-4)GlcNAc(b1-3)GalNAc
# Procedure, shortened: as §1
# [20] = biological target: Neu5Ac(a2-3)[Neu5Ac(a2-6)]GalNAc
# Procedure, shortened: as §1
# Neu5Ac(a2-6)Gal = biological target: Neu5Ac(a2-6)Gal
# Procedure, shortened: as §1
# [21] = biological target: Neu5Ac(a2-6)Gal(b1-3)GlcNAc(b1-3)[Gal(b1-4)GlcNAc(b1-6)]Gal(b1-4)Glc
# Procedure, shortened: as §1
# Neu5Ac(a2-6)Gal(b1-4)Glc = biological target: Neu5Ac(a2-6)Gal(b1-4)Glc
# Procedure, shortened: as §1
# [22] = biological target: Neu5Ac(a2-6)Gal(b1-4)GlcNAc
# Procedure, shortened: as §1
# [23] = biological target: Neu5Ac(a2-6)Gal(b1-4)GlcNAc(b1-2)Man
# Procedure, shortened: as §1
# [24] = biological target: Neu5Ac(a2-6)Gal(b1-4)GlcNAc(b1-2)Man(a1-3)Man(b1-4)GlcNAc(b1-4)GlcNAc
# Procedure, shortened: as §1
# [25] = biological target: Neu5Ac(a2-6)Gal(b1-4)GlcNAc(b1-2)Man(a1-3)[Gal(b1-4)GlcNAc(b1-2)Man(a1-6)]Man(b1-4)GlcNAc(b1-4)GlcNAc
# Procedure, shortened: as §1
# [26] = biological target: Neu5Ac(a2-6)Gal(b1-4)GlcNAc(b1-2)Man(a1-3)[GlcNAc(b1-2)Man(a1-6)]Man(b1-4)GlcNAc(b1-4)GlcNAc
# Procedure, shortened: as §1
# [27] = biological target: Neu5Ac(a2-6)Gal(b1-4)GlcNAc(b1-2)Man(a1-3)[GlcNAc(b1-4)][Neu5Ac(a2-6)Gal(b1-4)GlcNAc(b1-2)Man(a1-6)]Man(b1-4)GlcNAc(b1-4)GlcNAc
# Procedure, shortened: as §1
# [28] = biological target: Neu5Ac(a2-6)Gal(b1-4)GlcNAc(b1-2)Man(a1-3)[Man(a1-6)]Man(b1-4)GlcNAc(b1-4)GlcNAc
# Procedure, shortened: as §1
# [29] = biological target: Neu5Ac(a2-6)Gal(b1-4)GlcNAc(b1-2)Man(a1-3)[Neu5Ac(a2-3)Gal(b1-4)GlcNAc(b1-2)Man(a1-6)]Man(b1-4)GlcNAc(b1-4)GlcNAc
# Procedure, shortened: as §1
# [30] = biological target: Neu5Ac(a2-6)Gal(b1-4)GlcNAc(b1-2)Man(a1-3)[Neu5Ac(a2-6)Gal(b1-4)GlcNAc(b1-2)Man(a1-6)]Man(b1-4)GlcNAc(b1-4)GlcNAc
# Procedure, shortened: as §1
# [31] = biological target: Neu5Ac(a2-6)Gal(b1-4)GlcNAc(b1-2)Man(a1-3)[Neu5Ac(a2-6)Gal(b1-4)GlcNAc(b1-2)Man(a1-6)]Man(b1-4)GlcNAc(b1-4)[Fuc(a1-6)]GlcNAc
# Procedure, shortened: as §1
# [32] = biological target: Neu5Ac(a2-6)Gal(b1-4)GlcNAc(b1-2)Man(a1-6)Man(b1-4)GlcNAc(b1-4)GlcNAc
# Procedure, shortened: as §1
# [33] = biological target: Neu5Ac(a2-6)Gal(b1-4)GlcNAc(b1-2)Man(a1-6)[Gal(b1-4)GlcNAc(b1-2)Man(a1-3)]Man(b1-4)GlcNAc(b1-4)GlcNAc
# Procedure, shortened: as §1
# [34] = biological target: Neu5Ac(a2-6)Gal(b1-4)GlcNAc(b1-2)Man(a1-6)[GlcNAc(b1-2)Man(a1-3)]Man(b1-4)GlcNAc(b1-4)GlcNAc
# Procedure, shortened: as §1
# [35] = biological target: Neu5Ac(a2-6)Gal(b1-4)GlcNAc(b1-2)Man(a1-6)[Man(a1-3)]Man(b1-4)GlcNAc(b1-4)GlcNAc
# Procedure, shortened: as §1
# [36] = biological target: Neu5Ac(a2-6)Gal(b1-4)GlcNAc(b1-2)[Neu5Ac(a2-6)Gal(b1-4)GlcNAc(b1-4)]Man(a1-3)[GlcNAc(b1-4)][Neu5Ac(a2-6)Gal(b1-4)GlcNAc(b1-2)[Neu5Ac(a2-6)Gal(b1-4)GlcNAc(b1-6)]Man(a1-6)]Man(b1-4)GlcNAc(b1-4)GlcNAc
# Procedure, shortened: as §1
# [37] = biological target: Neu5Ac(a2-6)Gal(b1-4)GlcNAc(b1-2)[Neu5Ac(a2-6)Gal(b1-4)GlcNAc(b1-4)]Man(a1-3)[GlcNAc(b1-4)][Neu5Ac(a2-6)Gal(b1-4)GlcNAc(b1-4)Man(a1-6)]Man(b1-4)GlcNAc(b1-4)GlcNAc
# Procedure, shortened: as §1
# [38] = biological target: Neu5Ac(a2-6)Gal(b1-4)GlcNAc(b1-2)[Neu5Ac(a2-6)Gal(b1-4)GlcNAc(b1-6)]Man(a1-6)[Neu5Ac(a2-6)Gal(b1-4)GlcNAc(b1-2)Man(a1-3)][GlcNAc(b1-4)]Man(b1-4)GlcNAc(b1-4)GlcNAc
# Procedure, shortened: as §1
# [39] = biological target: Neu5Ac(a2-6)Gal(b1-4)GlcNAc(b1-3)Gal(b1-3)GlcNAc
# Procedure, shortened: as §1
# [40] = biological target: Neu5Ac(a2-6)Gal(b1-4)GlcNAc(b1-3)Gal(b1-4)GlcNAc
# Procedure, shortened: as §1
# [41] = biological target: Neu5Ac(a2-6)Gal(b1-4)GlcNAc(b1-3)Gal(b1-4)GlcNAc(b1-2)Man(a1-3)[Neu5Ac(a2-6)Gal(b1-4)GlcNAc(b1-3)Gal(b1-4)GlcNAc(b1-2)Man(a1-6)]GalNAc
# Procedure, shortened: as §1
# [42] = biological target: Neu5Ac(a2-6)Gal(b1-4)GlcNAc(b1-3)Gal(b1-4)GlcNAc(b1-3)Gal(b1-4)GlcNAc
# Procedure, shortened: as §1
# [43] = biological target: Neu5Ac(a2-6)Gal(b1-4)GlcNAc(b1-3)Gal(b1-4)GlcNAc(b1-3)Gal(b1-4)GlcNAc(b1-2)Man(a1-3)[Neu5Ac(a2-6)Gal(b1-4)GlcNAc(b1-3)Gal(b1-4)GlcNAc(b1-3)Gal(b1-4)GlcNAc(b1-2)Man(a1-6)]GalNAc
# Procedure, shortened: as §1
binder,measurement,setting,value
B1,glycan array binding signal (z-score),[1],-0.432
same,glycan array binding signal (z-score),[2],-0.644
same,glycan array binding signal (z-score),[3],0.149
same,glycan array binding signal (z-score),[4],-0.528
same,glycan array binding signal (z-score),[5],-0.529
same,glycan array binding signal (z-score),[6],-0.41
same,glycan array binding signal (z-score),[7],-0.844
same,glycan array binding signal (z-score),[8],-0.425
same,glycan array binding signal (z-score),[9],0.079
same,glycan array binding signal (z-score),[10],0.207
same,glycan array binding signal (z-score),[11],-0.076
same,glycan array binding signal (z-score),[12],2.04
same,glycan array binding signal (z-score),[13],-1.18
same,glycan array binding signal (z-score),[14],1.46
same,glycan array binding signal (z-score),[15],0.054
same,glycan array binding signal (z-score),Neu5Ac(a2-3)GalNAc,0.488
same,glycan array binding signal (z-score),[16],0.47
same,glycan array binding signal (z-score),[17],0.995
same,glycan array binding signal (z-score),[18],-0.569
same,glycan array binding signal (z-score),[19],1.36
same,glycan array binding signal (z-score),[20],-0.831
same,glycan array binding signal (z-score),Neu5Ac(a2-6)Gal,-0.94
same,glycan array binding signal (z-score),[21],-0.029
same,glycan array binding signal (z-score),Neu5Ac(a2-6)Gal(b1-4)Glc,0.414
same,glycan array binding signal (z-score),[22],-0.024
same,glycan array binding signal (z-score),[23],-0.547
same,glycan array binding signal (z-score),[24],-0.09
same,glycan array binding signal (z-score),[25],0.062
same,glycan array binding signal (z-score),[26],-0.637
same,glycan array binding signal (z-score),[27],-0.488
same,glycan array binding signal (z-score),[28],-0.517
same,glycan array binding signal (z-score),[29],-0.916
same,glycan array binding signal (z-score),[30],-0.28
same,glycan array binding signal (z-score),[31],-0.449
same,glycan array binding signal (z-score),[32],-0.353
same,glycan array binding signal (z-score),[33],-0.692
same,glycan array binding signal (z-score),[34],-0.158
same,glycan array binding signal (z-score),[35],-0.746
same,glycan array binding signal (z-score),[36],0.811
same,glycan array binding signal (z-score),[37],0.481
same,glycan array binding signal (z-score),[38],0.863
same,glycan array binding signal (z-score),[39],-1.24
same,glycan array binding signal (z-score),[40],-0.739
same,glycan array binding signal (z-score),[41],0.98
same,glycan array binding signal (z-score),[42],0.206
same,glycan array binding signal (z-score),[43],3.17

# An excerpt of these results, tab-delimited.
binder	measurement	setting	value
B1	glycan array binding signal (z-score)	[10]	0.207
same	glycan array binding signal (z-score)	[11]	-0.076

# From the supplement of paper PMC8728848
